For one molecule, binding results are on record in US20180022779A1.

The chains behind the UniProt entries cited, without tags or fusion partners. Residues count along the entry.
UniProt P69905, residues 2-142: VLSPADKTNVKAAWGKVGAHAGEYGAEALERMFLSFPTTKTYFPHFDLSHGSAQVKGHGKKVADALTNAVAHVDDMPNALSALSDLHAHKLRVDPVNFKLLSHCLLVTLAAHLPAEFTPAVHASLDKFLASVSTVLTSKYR

The assay has as its target human Hb α (endogenous, vascular cell co-culture of human coronary ECs and SMCs) (human) (UniProt P69905). Put plainly: co-immunoprecipitation (IP Hb α, blot CytB5R3) from VCCC lysates.

No constants are given. Whether binding was seen depends on the method and setting. Binding seen in cells or lysates may run through a third protein. Some results given as binding are weak or reduced against the parent protein; the word gives no strength.

B1: human CytB5R3 (endogenous, vascular cell co-culture and human coronary ECs) (enzyme, UniProt P00387 2-301, looked up)
chain: GAQLSTLGHMVLFPVWFLYSLLMKLFQRSTPAITLESPDIKYPLRLIDREIISHDTRRFRFALPSPQHILGLPVGQHIYLSARIDGNLVVRPYTPISSDDDKGFVDLVIKVYFKDTHPKFPAGGKMSQYLESMQIGDTIEFRGPSGLLVYQGKGKFAIRPDKKSNPIIRTVKSVGMIAGGTGITPMLQVIRAIMKDPDDHTVCHLLFANQTEKDILLRPELEELRNKHSARFKLWYTLDRAPEAWDYGQGFVNEEMIRDHLPPPEEEPLVLMCGPPPMIQYACLPNLDHVGHPTERCFVF
Take B1: the binding result is “binds”.
